Source: patent US20220281990A1 (MERRIMACK PHARMACEUTICALS, published 2022)
Results are given in words; binding and its absence hold for the method and conditions named. Some binding calls cover weakened binding; strength is not graded here.

Chains of the proteins cited; added tags and fusions are not shown. Lines headed by an entry give the natural chain unless they say otherwise; changes in a name come on top.
UniProt P20333: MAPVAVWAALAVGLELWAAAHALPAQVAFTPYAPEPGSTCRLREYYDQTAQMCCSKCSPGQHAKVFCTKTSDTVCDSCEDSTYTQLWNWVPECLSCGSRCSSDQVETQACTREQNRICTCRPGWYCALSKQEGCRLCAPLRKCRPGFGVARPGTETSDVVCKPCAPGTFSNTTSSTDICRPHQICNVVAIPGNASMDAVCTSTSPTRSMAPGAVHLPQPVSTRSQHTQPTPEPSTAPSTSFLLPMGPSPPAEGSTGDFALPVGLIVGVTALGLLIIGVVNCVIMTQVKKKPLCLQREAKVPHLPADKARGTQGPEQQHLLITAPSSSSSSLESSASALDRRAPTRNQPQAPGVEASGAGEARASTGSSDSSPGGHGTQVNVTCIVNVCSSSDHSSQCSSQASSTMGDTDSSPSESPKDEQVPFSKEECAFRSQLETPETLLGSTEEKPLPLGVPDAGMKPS

How the values were obtained:
[1] = target: biotin-labeled human TNFR2 (immobilized on streptavidin biosensors) (human) (UniProt P20333); assay: BLI sensorgram (FIG. 15)
[2] = target: biotin-labeled human TNFR2 (immobilized on streptavidin biosensors) (human) (UniProt P20333); assay: BLI; biotin-labeled human TNFR2 captured on streptavidin biosensors
[3] = target: biotin-labeled human TNFR2 (immobilized on streptavidin biosensors) (human) (UniProt P20333); assay: biolayer interferometry, biotin-labeled hTNFR2 (5 ug/mL) on streptavidin biosensor already loaded with the comparator antibody; antibody at 20 ug/mL

Measured: binding

B1: UC2.3.8-IgG1 (antibody, V domains shown)
VH: QVQLLESGGGLVQPGGSLRLSCAASGFTFSTYAMSWIRQAPGKGLEWVSIISDGGDATVYADSVKGRFTISRDNNRNTLYLQMNSLRAEDTAVYYCARDGTSAAAFDSWGQGTLVTVSS
VL: DIQMTQSPSSLSASVGDRVTITCQASQDITNFLNWYQQKPGKAPKLLIYDASRRRAGVPSRFSGSGSGTDFTFTISSLQPEDIATYYCQQSDSYPITFGQGTKVEIKR
notes: Full-length human IgG1; UC2.3.3 heavy chain combined with UC2.3.7 light chain; also called anti-human TNFR2 IgG UC2.3.8
binds: [1] | [2] | [3]
